The text below walks through data of paper PMC10208015.

By UniProt entry, the sequences of proteins in these tests, tags left out.
UniProt Q8N884: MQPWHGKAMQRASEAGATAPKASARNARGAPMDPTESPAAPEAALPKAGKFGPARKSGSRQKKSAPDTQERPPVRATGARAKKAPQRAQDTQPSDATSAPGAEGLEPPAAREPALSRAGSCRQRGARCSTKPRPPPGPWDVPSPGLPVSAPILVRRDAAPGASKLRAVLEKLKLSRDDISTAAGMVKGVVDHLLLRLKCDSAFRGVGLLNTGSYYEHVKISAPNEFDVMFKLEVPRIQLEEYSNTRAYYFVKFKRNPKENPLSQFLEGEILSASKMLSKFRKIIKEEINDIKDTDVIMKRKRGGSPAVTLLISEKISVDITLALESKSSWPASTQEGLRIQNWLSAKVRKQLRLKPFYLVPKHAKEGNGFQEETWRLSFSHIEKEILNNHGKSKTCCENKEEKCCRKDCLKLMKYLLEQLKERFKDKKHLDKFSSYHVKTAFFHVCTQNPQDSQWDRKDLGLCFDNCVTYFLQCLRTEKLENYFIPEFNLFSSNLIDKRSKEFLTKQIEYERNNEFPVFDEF
UniProt O60934: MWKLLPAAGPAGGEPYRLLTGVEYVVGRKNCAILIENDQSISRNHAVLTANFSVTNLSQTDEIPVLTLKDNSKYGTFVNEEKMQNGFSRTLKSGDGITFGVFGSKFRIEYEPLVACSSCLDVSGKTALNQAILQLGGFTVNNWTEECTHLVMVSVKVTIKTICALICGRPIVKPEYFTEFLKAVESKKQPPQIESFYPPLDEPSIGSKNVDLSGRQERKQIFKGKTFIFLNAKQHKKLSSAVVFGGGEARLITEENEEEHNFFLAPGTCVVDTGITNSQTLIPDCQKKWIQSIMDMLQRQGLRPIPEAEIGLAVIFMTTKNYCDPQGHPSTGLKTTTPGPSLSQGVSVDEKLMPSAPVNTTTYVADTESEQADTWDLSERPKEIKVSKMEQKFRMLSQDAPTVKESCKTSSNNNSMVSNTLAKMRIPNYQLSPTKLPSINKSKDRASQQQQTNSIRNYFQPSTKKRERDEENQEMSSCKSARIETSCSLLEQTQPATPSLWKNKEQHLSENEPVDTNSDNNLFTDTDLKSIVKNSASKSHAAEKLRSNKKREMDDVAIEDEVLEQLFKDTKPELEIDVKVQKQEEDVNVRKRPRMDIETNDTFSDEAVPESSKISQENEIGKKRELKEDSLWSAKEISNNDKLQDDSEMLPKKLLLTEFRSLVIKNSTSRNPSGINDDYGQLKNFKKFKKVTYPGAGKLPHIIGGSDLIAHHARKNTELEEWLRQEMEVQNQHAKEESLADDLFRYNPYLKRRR

Experiment [1] deals with cyclic GMP-AMP synthase (cGAS) (human (endogenous in AGS)) (UniProt Q8N884). Put plainly: co-IP; endogenous proteins of AGS cells, mild lysis; anti-cGAS or anti-NBN antibody on protein A/G magnetic beads, incubated with lysate overnight at 4°C; IgG as negative control; detection by immunoblotting. For orientation: Immunoblotting shows a protein as a band on a membrane.
Experiment [2] deals with NBN (human (endogenous in AGS)) (UniProt O60934). The description is as above.

These are yes or no findings as the source states them, for the method shown. Binding seen in cells or lysates may run through a third protein. Some results given as binding are weak or reduced against the parent protein; the word gives no strength.

For NBN (from UniProt O60934 1-754), in experiment [1], the binding result is “binds”.

For “cyclic GMP-AMP synthase (cGAS) (from UniProt Q8N884 1-522)”, in experiment [2], the binding result is on record as “binds”.
